# Measurements taken from paper PMC2905641.
# The chains behind the UniProt entries cited, without tags or fusion partners. Where a name states a change or a piece, a line headed by the entry shows the natural chain unless it says otherwise.
# UniProt Q92834: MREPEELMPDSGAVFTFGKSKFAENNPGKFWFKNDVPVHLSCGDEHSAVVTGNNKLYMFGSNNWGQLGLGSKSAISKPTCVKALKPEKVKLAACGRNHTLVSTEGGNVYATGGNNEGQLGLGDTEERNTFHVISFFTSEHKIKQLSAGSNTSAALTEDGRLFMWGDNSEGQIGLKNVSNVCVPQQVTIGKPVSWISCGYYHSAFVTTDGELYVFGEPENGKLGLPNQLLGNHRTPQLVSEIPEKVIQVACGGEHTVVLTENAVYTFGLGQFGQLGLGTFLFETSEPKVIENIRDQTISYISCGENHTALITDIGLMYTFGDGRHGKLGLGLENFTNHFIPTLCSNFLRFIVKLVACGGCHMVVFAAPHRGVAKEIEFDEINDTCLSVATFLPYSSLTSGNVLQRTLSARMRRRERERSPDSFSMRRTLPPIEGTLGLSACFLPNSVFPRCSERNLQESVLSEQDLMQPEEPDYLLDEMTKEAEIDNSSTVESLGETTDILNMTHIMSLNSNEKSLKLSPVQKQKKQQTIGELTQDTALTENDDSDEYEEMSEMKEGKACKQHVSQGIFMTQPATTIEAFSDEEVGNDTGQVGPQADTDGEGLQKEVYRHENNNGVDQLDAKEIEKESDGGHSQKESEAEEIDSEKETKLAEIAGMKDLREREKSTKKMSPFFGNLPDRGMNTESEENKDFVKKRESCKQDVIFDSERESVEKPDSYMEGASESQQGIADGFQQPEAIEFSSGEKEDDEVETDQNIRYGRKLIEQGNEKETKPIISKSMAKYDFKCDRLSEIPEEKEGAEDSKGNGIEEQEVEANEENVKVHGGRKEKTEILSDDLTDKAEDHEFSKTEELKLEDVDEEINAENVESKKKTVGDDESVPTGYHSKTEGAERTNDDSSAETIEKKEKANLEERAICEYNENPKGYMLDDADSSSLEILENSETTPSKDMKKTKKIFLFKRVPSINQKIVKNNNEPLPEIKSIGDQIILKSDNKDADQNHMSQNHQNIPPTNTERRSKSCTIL
# B1: NPHP1 amino acids 243–586, 35S-labeled (domain or fragment, UniProt O15259 243-586)
# chain: RTDPHWSAVQKAISEAGIFCLVNHVSFCYLIVLMRNRMETVEDTNGSETGFRAWNVQSRGRIFLVSKPVLQINTVDVLTTMGAIPAGFRPSTLSQLLEEGNQFRANYFLQPELMPSQLAFRDLMWDATEGTIRSRPSRISLILTLWSCKMIPLPGMSIQVLSRHVRLCLFDGNKVLSNIHTVRATWQPKKPKTWTFSPQVTRILPCLLDGDCFIRSNSASPDLGILFELGISYIRNSTGERGELSCGWVFLKLFDASGVPIPAKTYELFLNGGTPYEKGIEVDPSISRRAHGSVFYQIMTMRRQPQLLVKLRSLNRRSRNVLSLLPETLIGNMCSIHLLIFYRQ
# modifications: 35S-labeled methionine
# B2: 35S-labeled in vitro translated NPHP4, full length (protein, UniProt O75161 1-1426)
# chain: MNDWHRIFTQNVLVPPHPQRARQPWKESTAFQCVLKWLDGPVIRQGVLEVLSEVECHLRVSFFDVTYRHFFGRTWKTTVKPTKRPPSRIVFNEPLYFHTSLNHPHIVAVVEVVAEGKKRDGSLQTLSCGFGILRIFSNQPDSPISASQDKRLRLYHGTPRALLHPLLQDPAEQNRHMTLIENCSLQYTLKPHPALEPAFHLLPENLLVSGLQQIPGLLPAHGESGDALRKPRLQKPITGHLDDLFFTLYPSLEKFEEELLELHVQDHFQEGCGPLDGGALEILERRLRVGVHNGLGFVQRPQVVVLVPEMDVALTRSASFSRKVVSSSKTSSGSQALVLRSRLRLPEMVGHPAFAVIFQLEYVFSSPAGVDGNAASVTSLSNLACMHMVRWAVWNPLLEADSGRVTLPLQGGIQPNPSHCLVYKVPSASMSSEEVKQVESGTLRFQFSLGSEEHLDAPTEPVSGPKVERRPSRKPPTSPSSPPAPVPRVLAAPQNSPVGPGLSISQLAASPRSPTQHCLARPTSQLPHGSQASPAQAQEFPLEAGISHLEADLSQTSLVLETSIAEQLQELPFTPLHAPIVVGTQTRSSAGQPSRASMVLLQSSGFPEILDANKQPAEAVSATEPVTFNPQKEESDCLQSNEMVLQFLAFSRVAQDCRGTSWPKTVYFTFQFYRFPPATTPRLQLVQLDEAGQPSSGALTHILVPVSRDGTFDAGSPGFQLRYMVGPGFLKPGERRCFARYLAVQTLQIDVWDGDSLLLIGSAAVQMKHLLRQGRPAVQASHELEVVATEYEQDNMVVSGDMLGFGRVKPIGVHSVVKGRLHLTLANVGHPCEQKVRGCSTLPPSRSRVISNDGASRFSGGSLLTTGSSRRKHVVQAQKLADVDSELAAMLLTHARQGKGPQDVSRESDATRRRKLERMRSVRLQEAGGDLGRRGTSVLAQQSVRTQHLRDLQVIAAYRERTKAESIASLLSLAITTEHTLHATLGVAEFFEFVLKNPHNTQHTVTVEIDNPELSVIVDSQEWRDFKGAAGLHTPVEEDMFHLRGSLAPQLYLRPHETAHVPFKFQSFSAGQLAMVQASPGLSNEKGMDAVSPWKSSAVPTKHAKVLFRASGGKPIAVLCLTVELQPHVVDQVFRFYHPELSFLKKAIRLPPWHTFPGAPVGMLGEDPPVHVRCSDPNVICETQNVGPGEPRDIFLKVASGPSPEIKDFFVIIYSDRWLATPTQTWQVYLHSLQRVDVSCVAGQLTRLSLVLRGTQTVRKVRAFTSHPQELKTDPKGVFVLPPRGVQDLHVGVRPLRAGSRFVHLNLVDVDCHQLVASWLVCLCCRQPLISKAFEIMLAAGEGKGVNKRITYTNPYPSRRTFHLHSDHPELLRFREDSFQVGGGETYTIGLQFAPSQRVGEEEILIYINDHEDKNEEAFCVKVIYQ
# modifications: 35S-labeled methionine
# B3: NPHP4 N-terminal 316 amino acids (N316), 35S-labeled (domain or fragment, UniProt O75161 1-316)
# chain: MNDWHRIFTQNVLVPPHPQRARQPWKESTAFQCVLKWLDGPVIRQGVLEVLSEVECHLRVSFFDVTYRHFFGRTWKTTVKPTKRPPSRIVFNEPLYFHTSLNHPHIVAVVEVVAEGKKRDGSLQTLSCGFGILRIFSNQPDSPISASQDKRLRLYHGTPRALLHPLLQDPAEQNRHMTLIENCSLQYTLKPHPALEPAFHLLPENLLVSGLQQIPGLLPAHGESGDALRKPRLQKPITGHLDDLFFTLYPSLEKFEEELLELHVQDHFQEGCGPLDGGALEILERRLRVGVHNGLGFVQRPQVVVLVPEMDVALTR
# modifications: 35S-labeled methionine
# Target: GST-RLD (RCC1-like domain of RPGR fused to glutathione S-transferase) (UniProt Q92834)
# Assay: pull-down; GST or GST-RLD purified from E. coli as bait; 35S-labeled in vitro translated proteins as prey; autoradiography; only the target purified
row,Binder,binding
1,B1,binds
2,B2,binds
3,B3,binds

# Results are given in words; binding and its absence hold for the method and conditions named. Binding seen in cells or lysates may run through a third protein. Binding can be weak; no strength is given.
